US12084521B2, “TLR9 inhibitors to suppress inflammatory response to pathogens” (University Of Maryland, Baltimore, priority 2018, dated 2024)
Some results were stated once for a whole list of compounds, not compound by compound.

Tests used:
TLR4 signaling = experiment: TNFα mRNA in BMDM stimulated with E. coli LPS; assay type: cell-based, mouse; conditions: peptide 40 μM; E. coli LPS 0.1 μg/mL; 1 h
TLR9 signaling = experiment: ODN 1668-induced cytokine mRNA expression in BMDM (quantitative real time PCR); assay type: cell-based, mouse; conditions: peptide 40 μM, ODN 1668 1 μM, 1 h
Protocol: The cDNA obtained was amplified with gene-specific primers for mouse HPRT, TNFα, IL-10, IL-12-p40, or IL-6 and Fast SYBR Green™ master mix (Applied Biosystemsm) as previously described.
Mouse BMDMs were incubated in the presence of a 10, 20 or 40 μM decoy peptide for 30 minutes prior to stimulation with ODN 1668 (1 μM). […] Data represent the means±SEM of at least three independent experiments. The statistical significance of changes in cytokine mRNA was determined by a one-way ANOVA test; *p<0.001. Peptides 9R3 and 9R34 have overlapping sequences (see Table 1).
To investigate inhibition of TLR9 signaling by 9R34 analogues, the following work was performed. Mouse BMDMs were incubated in the presence of a 10, 20 or 40 μM decoy peptide for 30 minutes prior to stimulation with ODN 1668 (1 μM). Cytokine mRNA expression was measured 1 hour after ODN 1668 challenge and normalized to the expression of HPRT. See also Table 1. Data represent means±SEM of at least three independent experiments.

Sequence | reduction of TNFα mRNA expression in LPS-stimulated cells (TLR4 signaling) | inhibition of ODN-stimulated TNFα mRNA expression (TLR9 signaling)
GRWALRLCLEERD (antennapedia vector; Synthetic peptide 9R34) [tested as CPDP with antennapedia vector] | 50-70% | more than 99%
RSFWAQLGMALTRD (Synthetic peptide 9R11) | 50-70% | more than 99%
